Results as given in US20100278837A1, “Compositions And Methods For Reducing Cancer And Inflammation” (The Regents of the University of California, priority 2009, published 2010).
These are yes or no findings as the source states them, for the method shown. Binding seen in cells or lysates may run through a third protein. Some results given as binding are weak or reduced against the parent protein; the word gives no strength.

Chains of the proteins cited; added tags and fusions are not shown. Lines headed by an entry give the natural chain unless they say otherwise; changes in a name come on top.
UniProt Q00651: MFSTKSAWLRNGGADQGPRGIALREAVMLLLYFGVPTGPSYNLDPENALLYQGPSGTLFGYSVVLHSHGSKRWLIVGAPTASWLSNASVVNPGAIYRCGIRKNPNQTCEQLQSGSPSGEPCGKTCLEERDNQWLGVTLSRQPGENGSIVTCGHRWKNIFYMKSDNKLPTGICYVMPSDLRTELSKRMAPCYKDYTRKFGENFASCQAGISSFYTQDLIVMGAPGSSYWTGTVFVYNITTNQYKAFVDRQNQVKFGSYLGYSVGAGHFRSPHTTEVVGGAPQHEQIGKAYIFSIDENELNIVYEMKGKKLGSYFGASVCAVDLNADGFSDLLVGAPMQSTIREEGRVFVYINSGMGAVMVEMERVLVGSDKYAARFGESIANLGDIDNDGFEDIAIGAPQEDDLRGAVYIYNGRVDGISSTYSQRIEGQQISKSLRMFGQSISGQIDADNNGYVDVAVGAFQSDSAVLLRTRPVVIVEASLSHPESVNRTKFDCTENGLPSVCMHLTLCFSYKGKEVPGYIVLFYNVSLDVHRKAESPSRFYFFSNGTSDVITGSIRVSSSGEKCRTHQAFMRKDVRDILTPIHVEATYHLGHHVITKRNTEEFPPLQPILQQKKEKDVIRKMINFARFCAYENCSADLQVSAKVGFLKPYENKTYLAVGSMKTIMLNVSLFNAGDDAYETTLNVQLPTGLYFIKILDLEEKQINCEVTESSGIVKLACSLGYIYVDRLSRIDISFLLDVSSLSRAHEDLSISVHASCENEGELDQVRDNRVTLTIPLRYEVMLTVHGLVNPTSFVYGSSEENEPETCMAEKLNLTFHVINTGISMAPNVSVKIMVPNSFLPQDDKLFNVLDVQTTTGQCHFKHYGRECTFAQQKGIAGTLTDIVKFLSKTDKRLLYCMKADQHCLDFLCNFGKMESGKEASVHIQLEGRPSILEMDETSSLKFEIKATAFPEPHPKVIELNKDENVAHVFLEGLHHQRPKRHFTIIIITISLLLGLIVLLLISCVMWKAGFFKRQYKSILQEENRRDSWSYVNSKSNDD
UniProt P09055: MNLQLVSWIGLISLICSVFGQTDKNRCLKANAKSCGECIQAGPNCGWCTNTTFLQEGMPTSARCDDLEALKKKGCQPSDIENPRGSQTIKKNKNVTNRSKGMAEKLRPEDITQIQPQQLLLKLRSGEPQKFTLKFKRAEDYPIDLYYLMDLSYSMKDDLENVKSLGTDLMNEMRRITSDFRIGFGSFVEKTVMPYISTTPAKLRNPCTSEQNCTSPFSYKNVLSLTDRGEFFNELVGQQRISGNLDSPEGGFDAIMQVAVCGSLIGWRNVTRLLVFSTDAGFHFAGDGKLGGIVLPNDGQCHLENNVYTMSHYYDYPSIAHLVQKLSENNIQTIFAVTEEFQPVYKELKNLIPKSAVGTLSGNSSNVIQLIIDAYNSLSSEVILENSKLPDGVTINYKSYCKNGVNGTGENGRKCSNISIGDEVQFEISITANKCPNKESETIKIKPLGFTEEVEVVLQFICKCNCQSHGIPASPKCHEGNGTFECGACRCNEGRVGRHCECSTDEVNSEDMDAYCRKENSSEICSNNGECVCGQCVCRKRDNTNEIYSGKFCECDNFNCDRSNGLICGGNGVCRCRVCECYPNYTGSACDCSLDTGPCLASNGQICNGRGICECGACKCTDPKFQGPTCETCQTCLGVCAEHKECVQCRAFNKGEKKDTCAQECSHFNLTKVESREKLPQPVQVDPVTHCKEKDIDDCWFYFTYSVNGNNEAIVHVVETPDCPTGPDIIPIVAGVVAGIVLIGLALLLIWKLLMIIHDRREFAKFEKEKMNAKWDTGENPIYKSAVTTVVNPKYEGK
UniProt Q8VI36: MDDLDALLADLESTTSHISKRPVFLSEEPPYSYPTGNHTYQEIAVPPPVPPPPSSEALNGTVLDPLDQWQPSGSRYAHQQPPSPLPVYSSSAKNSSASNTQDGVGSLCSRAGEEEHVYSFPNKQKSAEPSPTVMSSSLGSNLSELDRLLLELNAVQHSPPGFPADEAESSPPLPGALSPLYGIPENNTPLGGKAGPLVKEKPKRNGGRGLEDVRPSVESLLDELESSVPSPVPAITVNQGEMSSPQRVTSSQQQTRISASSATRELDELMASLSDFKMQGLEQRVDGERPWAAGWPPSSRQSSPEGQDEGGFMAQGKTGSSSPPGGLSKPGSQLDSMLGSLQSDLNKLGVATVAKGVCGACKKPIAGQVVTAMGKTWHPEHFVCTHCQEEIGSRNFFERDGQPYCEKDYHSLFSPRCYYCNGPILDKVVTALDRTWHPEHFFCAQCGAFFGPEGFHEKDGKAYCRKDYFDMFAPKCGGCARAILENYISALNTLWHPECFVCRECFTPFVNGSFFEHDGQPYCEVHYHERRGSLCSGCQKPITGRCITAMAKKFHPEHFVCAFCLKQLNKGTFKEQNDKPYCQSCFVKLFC
UniProt P26039: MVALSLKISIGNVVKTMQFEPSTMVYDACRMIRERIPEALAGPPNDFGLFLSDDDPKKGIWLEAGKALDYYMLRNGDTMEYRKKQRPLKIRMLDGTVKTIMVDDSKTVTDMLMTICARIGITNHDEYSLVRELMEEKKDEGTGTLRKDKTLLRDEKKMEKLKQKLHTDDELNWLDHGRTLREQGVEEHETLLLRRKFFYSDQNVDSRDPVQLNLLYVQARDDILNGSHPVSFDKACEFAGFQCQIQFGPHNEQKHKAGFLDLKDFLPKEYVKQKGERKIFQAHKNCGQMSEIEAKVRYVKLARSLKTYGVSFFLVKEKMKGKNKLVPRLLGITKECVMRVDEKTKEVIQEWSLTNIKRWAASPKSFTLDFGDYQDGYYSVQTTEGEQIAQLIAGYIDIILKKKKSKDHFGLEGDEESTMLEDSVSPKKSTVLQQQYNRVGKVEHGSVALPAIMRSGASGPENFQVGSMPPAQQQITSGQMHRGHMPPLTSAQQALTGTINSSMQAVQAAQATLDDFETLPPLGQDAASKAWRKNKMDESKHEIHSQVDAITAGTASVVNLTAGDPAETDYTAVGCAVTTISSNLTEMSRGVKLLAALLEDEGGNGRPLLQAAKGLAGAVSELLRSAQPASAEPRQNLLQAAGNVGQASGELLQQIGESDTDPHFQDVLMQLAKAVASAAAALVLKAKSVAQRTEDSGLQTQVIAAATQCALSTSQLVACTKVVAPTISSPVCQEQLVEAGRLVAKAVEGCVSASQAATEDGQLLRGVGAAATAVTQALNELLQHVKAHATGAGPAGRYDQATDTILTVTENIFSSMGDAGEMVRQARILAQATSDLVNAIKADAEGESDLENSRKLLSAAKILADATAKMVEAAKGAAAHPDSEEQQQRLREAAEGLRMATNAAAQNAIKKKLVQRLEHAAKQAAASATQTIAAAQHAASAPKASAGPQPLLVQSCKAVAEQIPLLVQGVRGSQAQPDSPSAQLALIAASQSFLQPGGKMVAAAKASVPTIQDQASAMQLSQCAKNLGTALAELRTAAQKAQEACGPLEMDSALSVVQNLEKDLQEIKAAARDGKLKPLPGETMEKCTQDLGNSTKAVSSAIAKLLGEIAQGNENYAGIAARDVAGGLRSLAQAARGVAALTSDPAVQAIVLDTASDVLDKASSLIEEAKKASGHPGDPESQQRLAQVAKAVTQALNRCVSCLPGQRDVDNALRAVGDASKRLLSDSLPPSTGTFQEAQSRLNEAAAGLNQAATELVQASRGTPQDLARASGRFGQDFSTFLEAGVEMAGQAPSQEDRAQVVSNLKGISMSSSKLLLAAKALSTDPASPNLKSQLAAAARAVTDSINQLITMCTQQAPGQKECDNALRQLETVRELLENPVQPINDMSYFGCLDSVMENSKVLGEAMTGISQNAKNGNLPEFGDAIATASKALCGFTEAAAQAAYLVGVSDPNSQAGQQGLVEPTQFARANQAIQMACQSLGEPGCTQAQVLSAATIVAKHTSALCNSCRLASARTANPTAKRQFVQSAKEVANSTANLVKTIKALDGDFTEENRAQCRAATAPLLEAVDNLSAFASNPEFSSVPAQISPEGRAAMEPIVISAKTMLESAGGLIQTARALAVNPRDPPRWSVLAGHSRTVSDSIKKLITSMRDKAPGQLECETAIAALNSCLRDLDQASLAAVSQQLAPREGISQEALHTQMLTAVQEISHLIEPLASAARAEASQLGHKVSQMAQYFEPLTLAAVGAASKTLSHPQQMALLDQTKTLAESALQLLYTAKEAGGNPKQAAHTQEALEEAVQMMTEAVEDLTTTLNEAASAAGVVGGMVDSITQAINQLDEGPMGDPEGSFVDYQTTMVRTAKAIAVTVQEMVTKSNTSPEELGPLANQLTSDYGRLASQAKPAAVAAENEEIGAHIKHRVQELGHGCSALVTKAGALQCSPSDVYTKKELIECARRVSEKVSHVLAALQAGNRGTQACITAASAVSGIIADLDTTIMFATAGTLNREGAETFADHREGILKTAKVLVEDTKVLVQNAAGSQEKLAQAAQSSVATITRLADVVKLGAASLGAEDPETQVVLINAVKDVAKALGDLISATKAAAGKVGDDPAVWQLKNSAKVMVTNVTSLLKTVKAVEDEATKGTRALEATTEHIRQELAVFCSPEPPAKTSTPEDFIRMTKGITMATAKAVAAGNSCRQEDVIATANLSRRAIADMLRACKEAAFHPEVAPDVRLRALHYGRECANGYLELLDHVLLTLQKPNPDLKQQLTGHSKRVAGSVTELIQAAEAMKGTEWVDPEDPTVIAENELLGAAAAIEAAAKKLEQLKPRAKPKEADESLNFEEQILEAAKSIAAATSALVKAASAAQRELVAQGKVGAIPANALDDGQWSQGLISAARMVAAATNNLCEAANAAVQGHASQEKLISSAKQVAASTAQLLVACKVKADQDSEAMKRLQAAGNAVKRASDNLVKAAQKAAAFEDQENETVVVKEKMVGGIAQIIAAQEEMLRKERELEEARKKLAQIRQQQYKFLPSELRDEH

What was measured:
[1] = target: T1, murine integrin α4β1 (wildtype) of CD11b+ myeloid cells (mouse) (UniProt Q00651+P09055); test: co-immunoprecipitation of integrin α4, immunoblot (FIG. 38a-c)
[2] = target: T1, murine integrin α4β1 (wildtype) of CD11b+ myeloid cells (mouse); test: co-immunoprecipitation with anti-α4β1 (PS/2), immunoblot (FIG. 3d)

binding [1]	binding [2]	Substance
binds	binds	paxillin (murine, endogenous in bone marrow derived myeloid cells) (from UniProt Q8VI36 1-591)
binds	binds	talin (murine, endogenous in bone marrow derived myeloid cells) (from UniProt P26039 1-2541)
